From PMC11389410
No constants are given. Whether binding was seen depends on the method and setting. In cells and extracts the contact can be indirect. Some entries that bind do so weakly or less than the wild type. For some of these results: Where a sequence is shown, tags or fusion partners need not be part of it. One block for each binder: values may come before it.

Tests used:
[1] = molecular target: T1, TRAF6, endogenous in colonic tissue (not stated (colonic tissue of mice or of patients)) (UniProt P70196); test: co-IP; colonic tissue homogenised in RIPA lysis buffer with 1% PMSF, lysed in NP-40 lysis buffer
T1 sequence: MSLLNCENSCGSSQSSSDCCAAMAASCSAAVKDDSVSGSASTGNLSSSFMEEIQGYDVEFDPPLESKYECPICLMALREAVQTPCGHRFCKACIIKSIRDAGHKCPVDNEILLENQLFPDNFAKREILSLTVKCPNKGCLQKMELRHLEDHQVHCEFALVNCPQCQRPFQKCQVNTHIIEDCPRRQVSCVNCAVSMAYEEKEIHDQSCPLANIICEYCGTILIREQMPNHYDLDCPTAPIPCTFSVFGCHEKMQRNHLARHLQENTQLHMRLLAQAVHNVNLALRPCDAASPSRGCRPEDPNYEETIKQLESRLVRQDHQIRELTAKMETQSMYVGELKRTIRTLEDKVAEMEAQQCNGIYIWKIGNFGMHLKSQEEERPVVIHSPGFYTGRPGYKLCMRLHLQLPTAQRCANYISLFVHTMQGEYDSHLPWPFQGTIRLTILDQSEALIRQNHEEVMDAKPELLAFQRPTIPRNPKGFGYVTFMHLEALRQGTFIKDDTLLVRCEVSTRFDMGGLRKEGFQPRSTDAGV

[2] = molecular target: T2, Flag-tagged TRAF6 (aa 110–522) (UniProt Q9Y4K3); test: co-IP; HEK293T cells cotransfected with tagged plasmids; NP-40 lysis buffer (20 mM Tris-HCl pH 8.0, 1 mM EDTA, 1% NP-40, 150 mM NaCl); immunoblotting with the indicated antibodies
T2 sequence: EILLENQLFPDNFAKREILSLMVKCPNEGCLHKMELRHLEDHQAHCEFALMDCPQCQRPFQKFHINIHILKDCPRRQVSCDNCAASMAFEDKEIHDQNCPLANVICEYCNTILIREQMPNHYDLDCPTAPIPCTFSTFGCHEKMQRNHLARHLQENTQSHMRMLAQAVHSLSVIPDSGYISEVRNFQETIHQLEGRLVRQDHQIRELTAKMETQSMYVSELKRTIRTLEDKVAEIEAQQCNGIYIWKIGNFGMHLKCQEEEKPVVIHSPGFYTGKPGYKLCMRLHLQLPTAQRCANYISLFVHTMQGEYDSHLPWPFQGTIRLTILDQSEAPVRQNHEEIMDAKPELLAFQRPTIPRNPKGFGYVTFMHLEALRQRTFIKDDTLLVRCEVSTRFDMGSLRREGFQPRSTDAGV

[3] = molecular target: T3, Flag-tagged TRAF6 (aa 1–349) (UniProt Q9Y4K3); test: as above
T3 sequence: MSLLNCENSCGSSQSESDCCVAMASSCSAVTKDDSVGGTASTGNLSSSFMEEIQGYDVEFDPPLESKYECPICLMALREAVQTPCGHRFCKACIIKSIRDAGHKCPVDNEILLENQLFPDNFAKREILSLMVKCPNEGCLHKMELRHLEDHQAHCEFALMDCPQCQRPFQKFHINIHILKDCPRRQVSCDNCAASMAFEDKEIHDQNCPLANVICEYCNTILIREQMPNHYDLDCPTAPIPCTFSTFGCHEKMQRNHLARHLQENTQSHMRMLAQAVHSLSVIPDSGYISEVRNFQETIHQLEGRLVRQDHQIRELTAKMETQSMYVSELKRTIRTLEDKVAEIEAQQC

[4] = molecular target: T4, Flag-tagged TRAF6 (aa 260–522) (UniProt Q9Y4K3); test: as above
T4 sequence: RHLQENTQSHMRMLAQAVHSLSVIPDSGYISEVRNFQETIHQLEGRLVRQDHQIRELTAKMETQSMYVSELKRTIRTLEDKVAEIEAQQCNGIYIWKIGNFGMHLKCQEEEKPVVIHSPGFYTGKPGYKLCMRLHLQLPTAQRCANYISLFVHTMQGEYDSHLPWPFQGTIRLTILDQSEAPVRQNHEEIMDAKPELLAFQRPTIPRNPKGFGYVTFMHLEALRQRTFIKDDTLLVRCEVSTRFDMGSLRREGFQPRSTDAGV

- binding [1]: binds
B1: ASB3, endogenous in colonic tissue (protein, UniProt Q9WV72 1-525)
chain: MDFTEAYSDTCSTVGLAAREGNVKILRKLLKKGRSVDVADNRGWMPIHEAAYHNAVECLQMLIHTDSSENYIKAKTFEGFCALHLAVSQGHWKITQILLEAGADPNETTLEETTPLFLAVESGRIDVLKLLLQHGANVNGSHSMSGWNSLHQASFQGNAETIRLLLKQGADRECQDDFGITPLFVAAQYGKLESMSILISSGANVNCQALDKATPLFIAAQEGHTKCVELLLSSGADPDLYCNEDNWQLPIHAAAQMGHTETLDLLIPRTNRACDTGPDKVSPVYSAVFGGREECLEMLLQNGYSPDAQMCLVFGFSSPLCMAFQKDCDFSGIVNILLKYGAQLNELHLAYCLKYEKFSMFCSFLKKGSLMVPWNHTSEFISYAVKAQTKYKAWLPHLLLAGFDPLILLCSSSWVDSASDDILIFTLEFSNWKRLPSAVEKMLSVRANSSWALQQHLASVPSLTHLCRLEIRASLKAEHLHSDIFIHQLPLPRSLQNYLLYEEVLRMNEILEPAANQDGETSKAT

- binding [2]: binds
- binding [3]: no binding
- binding [4]: binds
B2: HA-tagged ASB3 (ankyrin repeat and SOCS box-containing protein 3) (protein, UniProt Q9Y575 1-518)
chain: MDFTEAYADTCSTVGLAAREGNVKVLRKLLKKGRSVDVADNRGWMPIHEAAYHNSVECLQMLINADSSENYIKMKTFEGFCALHLAASQGHWKIVQILLEAGADPNATTLEETTPLFLAVENGQIDVLRLLLQHGANVNGSHSMCGWNSLHQASFQENAEIIKLLLRKGANKECQDDFGITPLFVAAQYGKLESLSILISSGANVNCQALDKATPLFIAAQEGHTKCVELLLSSGADPDLYCNEDSWQLPIHAAAQMGHTKILDLLIPLTNRACDTGLNKVSPVYSAVFGGHEDCLEILLRNGYSPDAQACLVFGFSSPVCMAFQKDCEFFGIVNILLKYGAQINELHLAYCLKYEKFSIFRYFLRKGCSLGPWNHIYEFVNHAIKAQAKYKEWLPHLLVAGFDPLILLCNSWIDSVSIDTLIFTLEFTNWKTLAPAVERMLSARASNAWILQQHIATVPSLTHLCRLEIRSSLKSERLRSDSYISQLPLPRSLHNYLLYEDVLRMYEVPELAAIQDG
